Taken from: PubChem BioAssay AID504808 (Drosophila RNAi Screening Center, 2011)
The screen tested about 21,000 reagents; below is an unselected part of those with a known target gene and a result. In the full data, 18 (0.084%) are marked active. 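Raw counts without plate normalisation, one of two replicates; the ratio scores behind the calls were not deposited.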 Not stated in the record: the amount of reagent, the time to read-out.

Purpose: 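Fly genes required to hold E2F transcription in check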 (primary screen)
Cell system: Drosophila S2 cells
Knock-down reagent: long dsRNA against Drosophila genes
Measured: 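Dual luciferase plate measurements; E2F-specific signal taken as firefly over Renilla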
Direction: E2F firefly: higher = more E2F reporter activity; Renilla normaliser: higher = more normaliser reporter signal
Hit rule: 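Called active if the normalised E2F reporter went up by over 50%; the cutoff is arbitrary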

CG14346 [DRSC00376] — E2F firefly, rep 1 = 1.55e5; Renilla normaliser, rep 1 = 5486; outcome = inactive
CG33459 [DRSC05615] — E2F firefly, rep 1 = 1.66e5; Renilla normaliser, rep 1 = 5288; outcome = inactive
CG9150 [DRSC03148] — E2F firefly, rep 1 = 1.46e5; Renilla normaliser, rep 1 = 5497; outcome = inactive
RpS3A [DRSC17168] — E2F firefly, rep 1 = 34473; Renilla normaliser, rep 1 = 4145; outcome = inactive
RpL3 [DRSC16834] — E2F firefly, rep 1 = 78799; Renilla normaliser, rep 1 = 6646; outcome = inactive
CG11854 [DRSC14409] — E2F firefly, rep 1 = 1.08e5; Renilla normaliser, rep 1 = 5509; outcome = inactive
CG12645 [DRSC17851] — E2F firefly, rep 1 = 1.36e5; Renilla normaliser, rep 1 = 6453; outcome = inactive
CG15283 [DRSC01980] — E2F firefly, rep 1 = 1.01e5; Renilla normaliser, rep 1 = 3963; outcome = inactive
CG6118 [DRSC15968] — E2F firefly, rep 1 = 92602; Renilla normaliser, rep 1 = 5782; outcome = inactive
CG13492 [DRSC04137] — E2F firefly, rep 1 = 1.08e5; Renilla normaliser, rep 1 = 4474; outcome = inactive
CG13051 [DRSC09932] — E2F firefly, rep 1 = 1.71e5; Renilla normaliser, rep 1 = 7996; outcome = inactive
wcd [DRSC07051] — E2F firefly, rep 1 = 63855; Renilla normaliser, rep 1 = 3140; outcome = inactive
CG32027 (retired record) [DRSC09571] — E2F firefly, rep 1 = 1.37e5; Renilla normaliser, rep 1 = 4237; outcome = inactive
ppk10 [DRSC01123] — E2F firefly, rep 1 = 91753; Renilla normaliser, rep 1 = 6516; outcome = inactive
CG11149 [DRSC02130] — E2F firefly, rep 1 = 1.39e5; Renilla normaliser, rep 1 = 5100; outcome = inactive
CG42471 [DRSC01210] — E2F firefly, rep 1 = 1.36e5; Renilla normaliser, rep 1 = 7058; outcome = inactive
Klp67A [DRSC11205] — E2F firefly, rep 1 = 1.36e5; Renilla normaliser, rep 1 = 6094; outcome = inactive
CG15056 [DRSC19630] — E2F firefly, rep 1 = 2.39e5; Renilla normaliser, rep 1 = 7448; outcome = inactive
St2 [DRSC15142] — E2F firefly, rep 1 = 1.30e5; Renilla normaliser, rep 1 = 5802; outcome = inactive
wbl [DRSC07718] — E2F firefly, rep 1 = 1.58e5; Renilla normaliser, rep 1 = 4879; outcome = inactive
Arr2 [DRSC09670] — E2F firefly, rep 1 = 97746; Renilla normaliser, rep 1 = 3728; outcome = inactive
papi [DRSC00693] — E2F firefly, rep 1 = 81147; Renilla normaliser, rep 1 = 3677; outcome = inactive
san [DRSC07695] — E2F firefly, rep 1 = 1.04e5; Renilla normaliser, rep 1 = 4430; outcome = inactive
mu2 [DRSC08726] — E2F firefly, rep 1 = 67893; Renilla normaliser, rep 1 = 2903; outcome = inactive
SP2353 [DRSC07545] — E2F firefly, rep 1 = 1.42e5; Renilla normaliser, rep 1 = 4666; outcome = inactive
Neto [DRSC18982] — E2F firefly, rep 1 = 59631; Renilla normaliser, rep 1 = 3004; outcome = inactive
Neto [DRSC19503] — E2F firefly, rep 1 = 7898; Renilla normaliser, rep 1 = 708; outcome = inactive
Neto [DRSC19716] — E2F firefly, rep 1 = 1.07e5; Renilla normaliser, rep 1 = 6571; outcome = inactive
Neto [DRSC19717] — E2F firefly, rep 1 = 1.22e5; Renilla normaliser, rep 1 = 6582; outcome = inactive

No new results follow: entries from further up.
mu2 [DRSC08726] — E2F firefly, rep 1 = 67893; Renilla normaliser, rep 1 = 2903; outcome = inactive
SP2353 [DRSC07545] — E2F firefly, rep 1 = 1.42e5; Renilla normaliser, rep 1 = 4666; outcome = inactive
Neto [DRSC18982] — E2F firefly, rep 1 = 59631; Renilla normaliser, rep 1 = 3004; outcome = inactive
Neto [DRSC19503] — E2F firefly, rep 1 = 7898; Renilla normaliser, rep 1 = 708; outcome = inactive
